B1: Cep104 (protein, UniProt Q80V31 1-926)
chain: MPHKIGFVVVSSSGHEDGFSARELMIHAPTVSGWRSPKFCQFPQEIVLQMVERCRVRKLQLLAHQYMISSKVEFYISESLPEYLVPYQAERFRRLGYVSLCDNEKTGCKARELKSVYVDAVGQFLKLIFHQNHANKYNIYNQVALVAINIIGDPADLGDESNITSREKLIDHYLGHSPHNPEDPALDGTFSGRSDYISPLDDLAFDMYQDPEVAQIIRRLDERKREAVKKERYDHAKKLKQAIADLQKVGERLGRYEVEKRCAVEKEDYDLAKEKKQQMARYRAQVYEQLELHGLLQGEPEMQRPFALPLQPLASPSSPQHWKAVSSLPRTEKLVAEDSFAGPVLQEKPSASSPQHSAVDPSPPAAGHAPRSHTEVLPYDERPLPVTRKQLGEASAEAEVKEADSDVRRRGVAGEPEPLTEKALREASAAIDTLGEALVAGAYSKMWSCREDALLALYKKLMEMPVGTQKEDLKNMLRASVFLIRRAIKDIVASVFQASLKLLKMIITQYIPKHKLGKLDTTHCVERAFPLLLARAGDSSARLRVMALNFIQEMALFKEVKSLQLIPSYLVQPLKANASVHLAMSQVDLLARLLRDLGTESSGFTVDNVMKFAVSALEHRVYEVRETAVRIILDMYRQHPALTLEHLPPDDSATRRNLLYKAIFEGFAKIDGSVLPTEAEVRAQKRVATKEAEKQKKEEMKALQGQSGELRETQAGVQEKESEAVKLRNQDPQGRKAVLPDTPEIPANHFLDNLCIFCGERNESFTEEGLDLHYWKHCLMLTRCDHCRQVVEISSLTEHLLTECDRRDGFGKCPRCSEAIPKEELPGHIKTKECSPAKPEKVANHCPLCHENFAPGEEAWKVHLMGPAGCTMNLRKTHVLYKATAPQQGKGPAAAKSSTSAPKVGSKIPTPKGGLSKSSSRTYMRR
B2: Cspp1 (protein, UniProt B2RX88 1-1205)
chain: MADSLDEFIEEQKAKLAKDKAELESDPPYMEMKGKASEKLSENSKILISMAKENIPPSSQQQPKGPLGIEYGLSLPLGEDYEQKKHKLKEELRQDYRRYLTQGITQAKRKKNFLSTGETDPSTLGVSLPIDERLSAKERLKLERNREYNQFLRGKAESTEKVRQVEKNIEPKSQRNKNPISQGKSDLPLQIQTAYTHSEGPWLSRQEEGLYRQLDGEIELRSRRPLKQTKEEVGISGAEHPSLSGSAGVPERRARRANGERVLDRQHCRADRDPGVSEDMDERFRFESDFDRRLLRVYTNGRPHGSRRGYVDGDDVPEEPNTQISAAENKSVHCNGPPRSADLDITSPFAGMLFGGEDRELTKRRKEKYRQELLEQIAEQQKKKRREKDLAFGITTSGVQDPEKSPDRLKQFSLTPRHFEEMPPERPRVAFQTPPPPFSAPSSPSVPPVHSAPSHNEDLHSGLGSTLGELAHPRVLPVPLNPPPPPLLAPPASNYRTPYDDAYYFYGARNTLDPNIVYYGSGMIGGQPAPHVSAPVTHQVAPPAVNTVGQNEQKVLSDGLRNSGLVFEDKPKPSTQSLQSYQEALQEQIREREARRKKERLEKEEYEAKLEAEMRIYNPWGKGGGGAPLRDAKGNLITDLNRMHRQNIDAYHNPDARTYEDKRAVVSIDQNLATSNAENLEDSANKNSGPLQTQSSPFARGNTFGEPLSELQIKQQELYKNFLRFQIEEKRQREEAEREKLRVAEEKEEKRLAEQRARIQQEYEEEQERRREKEEEQRLKNEELIRLAEERRKEAERKKKEEEEKHNLQLQHYYERENIIGDETKHLRQPSPVVPALQNKIASKLQRPPSVDTIISSFIHESSMSRAQSPPVPARKNQLRAEEEKKNVIMELSEMRKQLRSEERRLQGRLLHLDSDDEIPMRKRERNPMDIFDMARHRVQAPVRRPSPKGLDATTFQNIHDFNELRERDSDTRVDLRLMYPDPPRDHHTLEIQQQALLREQQKRLNRIKMRRDAGADLDTICTDNAQGRRMPRDDTNDFLKNSLLESDSAFIGAYGETYPVIEDNAFPPPSQLPSARERRRNKLKGLDFDSSRLHTPQDGLSLKSISSVNVDQVRMRNEDRMRRLTEQQKKPTNTDDEGSLVDPDDIMRHLSDDGRNSAATEPWLRPGTSESLKRFMAEHLNEEQHKGPGKPGTFTWQGLSAAHA
B3: Armc9 (protein, UniProt Q9D2I5 1-817)
chain: MGDILAHESELLGLVKEYLDFAEFEDTLKTFSKECKVKGKPLCKNVGGPLKKDSKSLVIQRDLVAAFDSGDQKAFFDLWEGHIPSSVRDTDSLAQKLEFYLHIHFAIYLLKYCRGRPDKQELDKRISYFKTYLETKGAALSQTTEFLPFYALPFVPNPMVHPSFKELFQDSWTPELKLKLEKFLALTFKANNTPKLLTIYKENGPNSKELLQQLHQQLVEAERRAMTYLKRYNKIQADYHNLIGVTAELVDSLEATVSGKMITPEYLQSVCVRLFSNQMRQSLAHSVDFTRPGTASTMLRASLAPEKLKDVPLLPSLDYEKLKKDLIWGSDRLKAFLLQALRWRLTTSHPGEQRETVLQAYISNDLLDCHSHNQRSVLQLLHSKSEAVRQYMARLINALASLAEGRLYLAQNTKVLRMLEGRLKEEDKDVITRENVLGALQKFSLRRPLQTAMIRDGLIFWLIDLLKDPDCLSDYTLEYSVALLMNLCLRSAGKNMCAKVAGLMLKVLSDLLGHENHEIQPYVNGALYSILSIPSIREEARAMGMEDILRCFIKEGNAEMIRQIEFIIKQLNSEDLLDGVLESDDDEDEDDEEDHDIMEADLDKDELIQPQLGELSGEKLLTTEYLGIMTNTGKARRKGPASVQWSGDEPLRRPVTPGGHRTGCPVLGDHLISPQNAQQARNGCLRAMPVAHPDDYKEGKPGVTGCGTSSSFMDHKPREWSPAGHQKSRLVPTAALGWPREMTQDPSSGHITREFVPAFTCKPQVPSTPETVEQNPLKAKALSLAPQFSSSGPQQASRPASTASSTRGLHSSQSIRK
B4: Histone deacetylase 6 (enzyme, UniProt Q9Z2V5 1-1149)
chain: MTSTGQDSSTRQRKSRHNPQSPLQESSATLKRGGKKCAVPHSSPNLAEVKKKGKMKKLSQPAEEDLVVGLQGLDLNPETRVPVGTGLVFDEQLNDFHCLWDDSFPESPERLHAIREQLILEGLLGRCVSFQARFAEKEELMLVHSLEYIDLMETTQYMNEGELRVLAETYDSVYLHPNSYSCACLATGSVLRLVDALMGAEIRNGMAVIRPPGHHAQHNLMDGYCMFNHLAVAARYAQKKHRIQRVLIVDWDVHHGQGTQFIFDQDPSVLYFSIHRYEHGRFWPHLKASNWSTIGFGQGQGYTINVPWNQTGMRDADYIAAFLHILLPVASEFQPQLVLVAAGFDALHGDPKGEMAATPAGFAHLTHLLMGLAGGKLILSLEGGYNLRALAKGVSASLHTLLGDPCPMLESCVVPCASAQTSIYCTLEALEPFWEVLERSVETQEEDEVEEAVLEEEEEEGGWEATALPMDTWPLLQNRTGLVYDEKMMSHCNLWDNHHPETPQRILRIMCHLEEVGLAARCLILPARPALDSELLTCHSAEYVEHLRTTEKMKTRDLHREGANFDSIYICPSTFACAKLATGAACRLVEAVLSGEVLNGIAVVRPPGHHAEPNAACGFCFFNSVAVAARHAQIIAGRALRILIVDWDVHHGNGTQHIFEDDPSVLYVSLHRYDRGTFFPMGDEGASSQVGRDAGIGFTVNVPWNGPRMGDADYLAAWHRLVLPIAYEFNPELVLISAGFDAAQGDPLGGCQVTPEGYAHLTHLLMGLAGGRIILILEGGYNLASISESMAACTHSLLGDPPPQLTLLRPPQSGALVSISEVIQVHRKYWRSLRLMKMEDKEECSSSRLVIKKLPPTASPVSAKEMTTPKGKVPEESVRKTIAALPGKESTLGQAKSKMAKAVLAQGQSSEQAAKGTTLDLATSKETVGGATTDLWASAAAPENFPNQTTSVEALGETEPTPPASHTNKQTTGASPLQGVTAQQSLQLGVLSTLELSREAEEAHDSEEGLLGEAAGGQDMNSLMLTQGFGDFNTQDVFYAVTPLSWCPHLMAVCPIPAAGLDVSQPCKTCGTVQENWVCLTCYQVYCSRYVNAHMVCHHEASEHPLVLSCVDLSTWCYVCQAYVHHEDLQDVKNAAHQNKFGEDMPHSH
B5: Aurora kinase A (enzyme, UniProt P97477 1-395)
chain: MDRCKENCVSRPVKTTVPFGPKRVLVTEQIPSQNLGSASSGQAQRVLCPSNSQRVPSQAQKLGAGQKPAPKQLPAASVPRPVSRLNNPQKNEQPAASGNDSEKEQASLQKTEDTKKRQWTLEDFDIGRPLGKGKFGNVYLARERQSKFILALKVLFKTQLEKANVEHQLRREVEIQSHLRHPNILRLYGYFHDATRVYLILEYAPLGTVYRELQKLSKFDEQRTATYITELANALSYCHSKRVIHRDIKPENLLLGSNGELKIADFGWSVHAPSSRRTTMCGTLDYLPPEMIEGRMHDEKVDLWSLGVLCYEFLVGMPPFEAHTYQETYRRISRVEFTFPDFVTEGARDLISRLLKHNASQRLTLAEVLEHPWIKANSSKPPTGHTSKEPTSKSS
B6: CEP55 (protein, UniProt Q8BT07 1-462)
chain: MSSRSPKDLIKSKWGSRPSSSKSDTALEKFKGEIAAFKTSLDEITSGKGKMAEKGRSRLLEKIQVLEAEREKNVYYLLEKDKEIQRLKDHLRSRYSSSSLFEQLEEKTKECEKKQQLLESLSKETDVLKNQLSATTKRLSELESKASTLHLSQSMPANCFNSSMNSIHEKEMQLKDALEKNQQWLVYDQQREAYVKGLLAKIFELEKRTETAAASLTQQMKKIESEGYLQVEKQKYDHLLENAKKDLEVERQAVTQLRLELDEFRRKYEEARKEVEDLNQLLSSQRKADIQHLEEDKQKTERIQKLREESSIFKGKLEEERKRSEELLSQVRILYDSLLKHQEEQARVALLEQQMQACTLDFENEKLDRQNMQHQLYVILKELRKAKSQITQLESLKQLHGFTITEQPFPLQREPESRVKATSPKSPSAALNDSLVECPKCSVQYPATEHRDLLVHVEYCMK

By UniProt entry, the sequences of proteins in these tests, tags left out.
UniProt Q6A070: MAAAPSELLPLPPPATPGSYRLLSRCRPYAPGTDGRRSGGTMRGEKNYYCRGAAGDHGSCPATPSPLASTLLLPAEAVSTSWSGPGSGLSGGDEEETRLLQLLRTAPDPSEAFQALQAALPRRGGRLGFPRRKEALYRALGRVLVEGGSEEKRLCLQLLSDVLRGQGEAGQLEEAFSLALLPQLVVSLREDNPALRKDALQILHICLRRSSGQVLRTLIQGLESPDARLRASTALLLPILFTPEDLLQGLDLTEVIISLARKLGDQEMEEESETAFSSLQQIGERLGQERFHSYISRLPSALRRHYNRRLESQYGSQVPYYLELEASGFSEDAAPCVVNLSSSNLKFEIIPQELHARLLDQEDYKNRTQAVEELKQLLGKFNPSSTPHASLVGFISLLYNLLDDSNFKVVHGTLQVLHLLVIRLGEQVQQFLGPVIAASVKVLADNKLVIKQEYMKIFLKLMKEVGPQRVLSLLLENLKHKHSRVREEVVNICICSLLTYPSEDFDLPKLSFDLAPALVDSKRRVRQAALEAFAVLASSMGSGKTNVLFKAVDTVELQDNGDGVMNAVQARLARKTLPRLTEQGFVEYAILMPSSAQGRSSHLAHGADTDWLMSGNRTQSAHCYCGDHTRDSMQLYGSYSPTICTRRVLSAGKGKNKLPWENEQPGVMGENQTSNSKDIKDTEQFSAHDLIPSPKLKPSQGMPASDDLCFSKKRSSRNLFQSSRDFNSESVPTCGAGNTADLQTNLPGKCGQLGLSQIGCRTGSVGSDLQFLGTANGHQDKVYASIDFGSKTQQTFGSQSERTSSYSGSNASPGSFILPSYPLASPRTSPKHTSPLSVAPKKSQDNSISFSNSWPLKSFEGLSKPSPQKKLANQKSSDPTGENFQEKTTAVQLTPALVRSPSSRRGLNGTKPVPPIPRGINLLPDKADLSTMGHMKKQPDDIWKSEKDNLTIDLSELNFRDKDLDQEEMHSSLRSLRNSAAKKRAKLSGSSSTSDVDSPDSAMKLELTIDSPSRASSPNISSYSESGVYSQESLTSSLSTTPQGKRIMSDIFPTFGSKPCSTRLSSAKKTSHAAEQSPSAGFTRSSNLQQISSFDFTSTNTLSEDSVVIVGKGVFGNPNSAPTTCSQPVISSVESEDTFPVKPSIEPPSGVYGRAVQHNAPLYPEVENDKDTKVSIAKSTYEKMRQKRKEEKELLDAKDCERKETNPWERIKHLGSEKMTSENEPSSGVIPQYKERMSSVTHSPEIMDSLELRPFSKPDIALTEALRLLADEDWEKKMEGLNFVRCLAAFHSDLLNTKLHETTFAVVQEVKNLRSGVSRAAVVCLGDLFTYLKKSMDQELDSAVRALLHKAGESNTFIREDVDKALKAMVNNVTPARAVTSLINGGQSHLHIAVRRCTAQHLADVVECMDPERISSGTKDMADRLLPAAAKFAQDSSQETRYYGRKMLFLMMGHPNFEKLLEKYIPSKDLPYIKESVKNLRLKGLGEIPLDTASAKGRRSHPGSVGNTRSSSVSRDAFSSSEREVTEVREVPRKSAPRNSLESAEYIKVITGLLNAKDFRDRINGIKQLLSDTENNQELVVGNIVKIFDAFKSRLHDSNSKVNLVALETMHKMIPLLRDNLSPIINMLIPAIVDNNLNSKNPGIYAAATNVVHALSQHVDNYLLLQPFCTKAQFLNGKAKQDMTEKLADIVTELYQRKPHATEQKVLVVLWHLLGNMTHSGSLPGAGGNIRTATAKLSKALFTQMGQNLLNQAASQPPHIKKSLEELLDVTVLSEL

This passage reports binding results from publication doi:10.1101/2024.06.16.599243.

No constants are given. Whether binding was seen depends on the method and setting. Binding seen in cells or lysates may run through a third protein. Here binding means that the protein was enriched with, or labelled near, the bait; the list need not be complete. A no says only that the protein was not detected with the bait. Where a sequence is shown, tags or fusion partners need not be part of it.

In this assay the target is T1, Flag-miniTurbo-CCDC66 (human) (UniProt A2RUB6).
T1 sequence: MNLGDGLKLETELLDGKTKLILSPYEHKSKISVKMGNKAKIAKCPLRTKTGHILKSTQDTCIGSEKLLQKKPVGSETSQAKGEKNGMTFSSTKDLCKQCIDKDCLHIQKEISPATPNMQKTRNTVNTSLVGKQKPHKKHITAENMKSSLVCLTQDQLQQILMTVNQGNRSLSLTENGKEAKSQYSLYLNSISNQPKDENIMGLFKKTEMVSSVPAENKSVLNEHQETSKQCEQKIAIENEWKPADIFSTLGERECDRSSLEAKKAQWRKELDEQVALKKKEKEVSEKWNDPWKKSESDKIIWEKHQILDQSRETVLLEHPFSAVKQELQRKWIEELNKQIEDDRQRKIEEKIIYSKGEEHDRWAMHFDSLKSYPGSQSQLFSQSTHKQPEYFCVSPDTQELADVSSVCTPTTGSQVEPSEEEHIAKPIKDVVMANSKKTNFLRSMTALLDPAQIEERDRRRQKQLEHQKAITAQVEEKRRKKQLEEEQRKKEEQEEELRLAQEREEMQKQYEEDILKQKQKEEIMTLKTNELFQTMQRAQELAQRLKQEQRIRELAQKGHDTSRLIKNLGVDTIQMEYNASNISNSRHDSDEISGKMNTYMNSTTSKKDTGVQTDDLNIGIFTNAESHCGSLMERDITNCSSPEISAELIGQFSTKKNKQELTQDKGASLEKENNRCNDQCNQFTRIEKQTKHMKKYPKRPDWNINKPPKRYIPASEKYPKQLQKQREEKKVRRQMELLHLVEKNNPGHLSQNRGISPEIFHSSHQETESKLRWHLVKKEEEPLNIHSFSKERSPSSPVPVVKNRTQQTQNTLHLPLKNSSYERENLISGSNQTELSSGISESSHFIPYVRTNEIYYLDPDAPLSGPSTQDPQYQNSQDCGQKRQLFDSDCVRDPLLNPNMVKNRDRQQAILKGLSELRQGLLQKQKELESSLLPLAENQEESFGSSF
The experiment in a line: proximity labelling.
For Togaram1 (from UniProt Q6A070 1-1776), the binding result is “binds”.

Take B1: the binding result is “binds”.

Turning to B2, the binding entry is “binds”.

For the molecule B3, the binding entry was “binds”.

Regarding B4, the binding entry was “no binding”.

For the molecule B5, the binding result was “no binding”.

With B6, the binding result was “binds”.
